Earlier results on 1 compound are cited in publication PMC10790361, “Membrane Partitioning of TEMPO Discriminates Human Lung Cancer from Neighboring Normal Cells” (Acta Naturae, 2023).

The series concerns HCT116 cell lines. Further details: method as in PMID 9607601. The following applies: read-out: IC50 of doxorubicin, cited from earlier work.

Where two headings read alike, the source gives them in different places.

Regarding `COc1cccc2c1C(=O)c1c(O)c3c(c(O)c1C2=O)C[C@@](O)(C(=O)CO)C[C@@H]3O[C@H]1C[C@H](N)[C@H](O)[C@H](C)O1` [doxorubicin], the IC50 – broadly, the concentration needed to halve the response being measured – (HCT116, pretreatment with TEMPOL) is 53 µM and the IC50 (HCT116, without TEMPOL pretreatment) was 380 µM.
